Reference: ChEMBL document CHEMBL4184204, “Fusarithioamide B, a new benzamide derivative from the endophytic fungus Fusarium chlamydosporium with potent cytotoxic and antimicrobial activities” (Bioorg Med Chem, 2018)
≈ marks a conversion by molar mass, not a printed value.

Key:
Type in all cases: functional
Escherichia coli = assay: Antibacterial activity against Escherichia coli AUMC B-53 by microdilution method
Pseudomonas aeruginosa = assay: Antibacterial activity against Pseudomonas aeruginosa AUMC B-73 by microdilution method
Staphylococcus aureus = assay: Antibacterial activity against Staphylococcus aureus AUMC B-54 by microdilution method

MIC (Escherichia coli): 3.9 mg/L (≈ 11.8 µM) | MIC (Pseudomonas aeruginosa): 6.1 mg/L (≈ 18.4 µM) | MIC (Staphylococcus aureus): 3.4 mg/L (≈ 10.3 µM)
Compound: O=C(O)c1cn(C2CC2)c2cc(N3CCNCC3)c(F)cc2c1=O [CIPROFLOXACIN]
